Test results taken from article PMC10216487.
These are yes or no findings as the source states them, for the method shown. Binding seen in cells or lysates may run through a third protein. Some binding calls cover weakened binding; strength is not graded here.

Chains of the proteins cited; added tags and fusions are not shown.
UniProt Q92922: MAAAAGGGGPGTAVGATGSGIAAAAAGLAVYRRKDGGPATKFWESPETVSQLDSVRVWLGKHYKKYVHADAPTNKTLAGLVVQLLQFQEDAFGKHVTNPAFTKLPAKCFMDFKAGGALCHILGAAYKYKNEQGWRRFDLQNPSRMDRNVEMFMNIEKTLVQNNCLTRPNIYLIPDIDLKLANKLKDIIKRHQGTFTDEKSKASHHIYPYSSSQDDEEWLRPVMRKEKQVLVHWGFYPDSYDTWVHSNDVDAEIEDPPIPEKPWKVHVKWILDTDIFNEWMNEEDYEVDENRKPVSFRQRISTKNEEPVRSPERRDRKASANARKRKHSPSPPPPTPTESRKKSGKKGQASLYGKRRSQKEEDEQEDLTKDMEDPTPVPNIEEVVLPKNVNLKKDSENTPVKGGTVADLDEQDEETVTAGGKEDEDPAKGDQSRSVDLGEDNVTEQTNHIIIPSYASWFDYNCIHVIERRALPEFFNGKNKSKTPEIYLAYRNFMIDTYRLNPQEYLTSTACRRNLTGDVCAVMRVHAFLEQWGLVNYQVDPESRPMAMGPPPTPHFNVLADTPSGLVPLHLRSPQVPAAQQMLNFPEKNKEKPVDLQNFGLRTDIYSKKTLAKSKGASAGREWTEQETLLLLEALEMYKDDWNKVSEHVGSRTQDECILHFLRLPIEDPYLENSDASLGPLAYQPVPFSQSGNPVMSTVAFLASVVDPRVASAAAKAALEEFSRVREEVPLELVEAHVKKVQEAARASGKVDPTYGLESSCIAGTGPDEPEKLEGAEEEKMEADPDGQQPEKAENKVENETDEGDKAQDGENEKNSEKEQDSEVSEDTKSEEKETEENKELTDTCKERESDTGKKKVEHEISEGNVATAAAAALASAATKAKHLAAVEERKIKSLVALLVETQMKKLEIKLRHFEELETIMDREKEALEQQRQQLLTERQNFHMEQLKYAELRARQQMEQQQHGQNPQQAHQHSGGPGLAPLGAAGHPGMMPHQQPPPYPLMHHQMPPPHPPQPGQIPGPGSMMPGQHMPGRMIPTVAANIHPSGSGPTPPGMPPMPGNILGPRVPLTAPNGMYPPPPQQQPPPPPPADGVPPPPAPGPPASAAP
UniProt P51531: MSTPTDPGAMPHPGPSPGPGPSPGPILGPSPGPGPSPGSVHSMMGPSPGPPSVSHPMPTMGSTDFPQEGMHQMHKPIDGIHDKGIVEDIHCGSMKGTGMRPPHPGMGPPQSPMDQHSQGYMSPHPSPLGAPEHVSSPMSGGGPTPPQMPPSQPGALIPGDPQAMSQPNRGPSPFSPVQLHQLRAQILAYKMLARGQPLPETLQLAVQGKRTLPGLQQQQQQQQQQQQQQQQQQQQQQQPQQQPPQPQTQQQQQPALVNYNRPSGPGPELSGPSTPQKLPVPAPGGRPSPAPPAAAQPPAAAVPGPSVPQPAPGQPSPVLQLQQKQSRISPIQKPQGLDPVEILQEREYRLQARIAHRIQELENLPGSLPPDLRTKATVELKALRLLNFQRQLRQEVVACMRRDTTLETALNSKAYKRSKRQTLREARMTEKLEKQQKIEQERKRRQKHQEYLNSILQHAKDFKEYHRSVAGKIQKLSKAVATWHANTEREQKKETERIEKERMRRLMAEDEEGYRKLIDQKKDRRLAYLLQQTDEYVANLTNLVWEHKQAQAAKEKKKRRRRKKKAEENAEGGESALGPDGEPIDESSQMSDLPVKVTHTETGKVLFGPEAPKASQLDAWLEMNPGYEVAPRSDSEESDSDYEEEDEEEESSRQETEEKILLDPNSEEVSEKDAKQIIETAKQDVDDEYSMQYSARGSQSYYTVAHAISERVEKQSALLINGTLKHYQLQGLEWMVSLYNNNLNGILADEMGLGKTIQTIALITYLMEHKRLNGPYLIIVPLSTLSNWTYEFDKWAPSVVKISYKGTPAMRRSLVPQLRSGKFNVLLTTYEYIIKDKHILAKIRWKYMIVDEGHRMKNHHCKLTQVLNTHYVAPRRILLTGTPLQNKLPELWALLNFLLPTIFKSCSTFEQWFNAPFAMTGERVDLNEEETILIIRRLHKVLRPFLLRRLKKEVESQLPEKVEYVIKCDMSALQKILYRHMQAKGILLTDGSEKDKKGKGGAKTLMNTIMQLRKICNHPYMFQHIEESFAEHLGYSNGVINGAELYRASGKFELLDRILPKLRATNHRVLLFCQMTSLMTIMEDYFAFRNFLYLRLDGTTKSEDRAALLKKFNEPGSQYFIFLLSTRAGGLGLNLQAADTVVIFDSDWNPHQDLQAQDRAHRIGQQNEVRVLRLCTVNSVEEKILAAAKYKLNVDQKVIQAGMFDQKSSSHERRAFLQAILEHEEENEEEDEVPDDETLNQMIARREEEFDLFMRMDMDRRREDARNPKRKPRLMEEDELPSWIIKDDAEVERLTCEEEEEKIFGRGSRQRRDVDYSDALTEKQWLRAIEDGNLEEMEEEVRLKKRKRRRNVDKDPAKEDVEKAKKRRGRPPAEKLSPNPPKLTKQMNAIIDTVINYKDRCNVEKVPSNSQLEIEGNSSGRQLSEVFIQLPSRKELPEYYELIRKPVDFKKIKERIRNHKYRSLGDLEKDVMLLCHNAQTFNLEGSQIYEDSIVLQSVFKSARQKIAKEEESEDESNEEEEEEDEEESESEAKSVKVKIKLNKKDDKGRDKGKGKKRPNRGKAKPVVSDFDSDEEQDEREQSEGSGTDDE
UniProt Q96RK0: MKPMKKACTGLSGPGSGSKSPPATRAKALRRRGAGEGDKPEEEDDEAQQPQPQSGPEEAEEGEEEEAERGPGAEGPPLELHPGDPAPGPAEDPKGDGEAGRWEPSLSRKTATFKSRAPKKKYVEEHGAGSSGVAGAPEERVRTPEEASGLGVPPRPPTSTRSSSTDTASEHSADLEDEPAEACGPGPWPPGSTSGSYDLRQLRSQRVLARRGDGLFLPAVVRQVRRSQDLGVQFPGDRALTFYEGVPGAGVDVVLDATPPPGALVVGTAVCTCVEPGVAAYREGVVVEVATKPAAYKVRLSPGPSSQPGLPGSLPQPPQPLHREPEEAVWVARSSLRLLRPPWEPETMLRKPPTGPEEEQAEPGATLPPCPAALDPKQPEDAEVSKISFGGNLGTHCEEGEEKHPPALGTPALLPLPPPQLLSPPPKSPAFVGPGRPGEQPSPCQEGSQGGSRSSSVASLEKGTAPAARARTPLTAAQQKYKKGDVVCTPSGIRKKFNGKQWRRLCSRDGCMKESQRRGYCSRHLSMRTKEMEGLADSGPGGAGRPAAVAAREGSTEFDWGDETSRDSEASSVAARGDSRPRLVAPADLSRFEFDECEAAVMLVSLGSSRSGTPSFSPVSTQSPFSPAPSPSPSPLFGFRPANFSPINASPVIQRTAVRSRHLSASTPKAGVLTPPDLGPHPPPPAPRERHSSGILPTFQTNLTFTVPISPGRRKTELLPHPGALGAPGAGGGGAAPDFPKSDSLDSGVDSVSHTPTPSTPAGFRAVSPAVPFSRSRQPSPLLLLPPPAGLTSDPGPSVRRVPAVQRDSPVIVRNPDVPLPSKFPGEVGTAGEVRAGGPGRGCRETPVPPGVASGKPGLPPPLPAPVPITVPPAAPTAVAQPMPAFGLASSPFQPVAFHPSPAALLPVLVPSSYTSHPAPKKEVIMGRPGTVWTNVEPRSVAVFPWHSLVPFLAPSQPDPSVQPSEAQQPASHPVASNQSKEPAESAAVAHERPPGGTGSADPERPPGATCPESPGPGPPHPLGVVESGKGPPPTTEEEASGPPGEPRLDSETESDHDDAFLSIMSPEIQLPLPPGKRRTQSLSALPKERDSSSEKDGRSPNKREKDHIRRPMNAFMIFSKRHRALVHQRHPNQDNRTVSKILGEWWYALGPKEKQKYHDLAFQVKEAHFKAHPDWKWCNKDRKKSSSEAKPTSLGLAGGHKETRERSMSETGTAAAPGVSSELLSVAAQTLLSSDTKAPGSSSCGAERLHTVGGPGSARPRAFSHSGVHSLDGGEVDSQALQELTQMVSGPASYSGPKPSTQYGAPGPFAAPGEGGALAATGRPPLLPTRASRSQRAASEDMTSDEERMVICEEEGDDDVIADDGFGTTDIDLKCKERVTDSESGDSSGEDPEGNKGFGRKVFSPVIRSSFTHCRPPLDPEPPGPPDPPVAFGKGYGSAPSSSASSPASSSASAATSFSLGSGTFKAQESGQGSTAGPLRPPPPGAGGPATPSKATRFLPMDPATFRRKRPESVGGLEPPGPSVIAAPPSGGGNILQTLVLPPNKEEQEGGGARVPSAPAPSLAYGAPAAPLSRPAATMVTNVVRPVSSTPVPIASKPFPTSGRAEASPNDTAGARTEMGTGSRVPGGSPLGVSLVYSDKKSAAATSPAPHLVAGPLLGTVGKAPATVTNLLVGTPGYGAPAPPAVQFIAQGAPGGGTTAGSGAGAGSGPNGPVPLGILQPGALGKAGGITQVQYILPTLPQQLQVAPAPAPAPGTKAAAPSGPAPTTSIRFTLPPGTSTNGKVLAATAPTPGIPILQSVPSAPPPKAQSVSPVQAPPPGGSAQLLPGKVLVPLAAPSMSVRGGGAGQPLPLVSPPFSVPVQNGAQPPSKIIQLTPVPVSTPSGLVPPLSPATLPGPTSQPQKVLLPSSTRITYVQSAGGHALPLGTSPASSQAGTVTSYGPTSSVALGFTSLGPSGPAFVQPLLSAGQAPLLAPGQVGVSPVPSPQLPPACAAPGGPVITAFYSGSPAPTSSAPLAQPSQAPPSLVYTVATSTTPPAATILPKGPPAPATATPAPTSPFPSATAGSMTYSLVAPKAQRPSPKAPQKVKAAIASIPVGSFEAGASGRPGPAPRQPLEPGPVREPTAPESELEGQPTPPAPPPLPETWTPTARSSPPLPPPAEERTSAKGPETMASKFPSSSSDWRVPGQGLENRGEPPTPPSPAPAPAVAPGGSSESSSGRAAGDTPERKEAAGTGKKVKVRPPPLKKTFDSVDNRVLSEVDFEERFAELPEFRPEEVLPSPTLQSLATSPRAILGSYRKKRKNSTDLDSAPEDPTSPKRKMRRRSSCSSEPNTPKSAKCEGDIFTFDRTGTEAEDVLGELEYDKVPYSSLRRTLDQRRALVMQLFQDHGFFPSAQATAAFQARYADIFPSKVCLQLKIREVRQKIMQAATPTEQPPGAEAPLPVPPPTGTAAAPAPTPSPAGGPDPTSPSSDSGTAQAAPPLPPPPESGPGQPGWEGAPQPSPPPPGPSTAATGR

Legend:
[1] = molecular target: SMARCC1 (human (endogenous in HEK293A and NHA)) (UniProt Q92922); experiment: co-IP; reciprocal IP: SWI/SNF subunit immunoprecipitated from nuclear lysates of the parental NHA-CIC^WT line, CIC detected by western blot
[2] = molecular target: SMARCA2 (human (endogenous in HEK293A and NHA)) (UniProt P51531); experiment: as above

For “Capicua (CIC), endogenous (from UniProt Q96RK0 1-2517)”, the binding [1] was “binds” and the binding [2] was “binds”.
